One molecule from doi:10.1101/162958 can be followed below.

No constants are given. Whether binding was seen depends on the method and setting. In cells and extracts the contact can be indirect. Some entries that bind do so weakly or less than the wild type. Where a sequence is shown, tags or fusion partners need not be part of it.

The target in test [1] is T1, open mutant Stx3(L165A/E166A), myc-tagged (human) (UniProt Q13277).
T1 sequence: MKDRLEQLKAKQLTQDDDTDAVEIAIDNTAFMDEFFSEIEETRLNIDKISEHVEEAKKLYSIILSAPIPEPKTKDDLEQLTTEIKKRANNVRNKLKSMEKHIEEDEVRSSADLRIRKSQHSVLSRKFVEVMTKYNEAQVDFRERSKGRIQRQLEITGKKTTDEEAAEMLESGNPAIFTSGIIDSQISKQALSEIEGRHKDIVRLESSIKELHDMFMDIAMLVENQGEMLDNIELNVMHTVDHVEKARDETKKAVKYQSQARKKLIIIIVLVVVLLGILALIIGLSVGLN
Kind of test: co-IP.

For test [2], the target named is T2, C-terminally myc-epitope tagged Stx3 (membrane-anchored Stx3A) (human) (UniProt Q13277).
T2 sequence: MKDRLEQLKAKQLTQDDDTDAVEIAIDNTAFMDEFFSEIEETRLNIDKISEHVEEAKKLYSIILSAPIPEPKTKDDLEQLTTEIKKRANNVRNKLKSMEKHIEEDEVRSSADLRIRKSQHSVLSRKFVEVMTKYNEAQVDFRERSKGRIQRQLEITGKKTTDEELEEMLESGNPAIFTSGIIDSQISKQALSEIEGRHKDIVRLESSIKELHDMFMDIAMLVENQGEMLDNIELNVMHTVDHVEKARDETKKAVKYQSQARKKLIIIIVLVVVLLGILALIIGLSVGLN
Kind of test: co-IP.

B1: RanBP5 (in HEK293T lysate) (protein, UniProt O00410 1-1097)
chain: MAAAAAEQQQFYLLLGNLLSPDNVVRKQAEETYENIPGQSKITFLLQAIRNTTAAEEARQMAAVLLRRLLSSAFDEVYPALPSDVQTAIKSELLMIIQMETQSSMRKKVCDIAAELARNLIDEDGNNQWPEGLKFLFDSVSSQNVGLREAALHIFWNFPGIFGNQQQHYLDVIKRMLVQCMQDQEHPSIRTLSARATAAFILANEHNVALFKHFADLLPGFLQAVNDSCYQNDDSVLKSLVEIADTVPKYLRPHLEATLQLSLKLCGDTSLNNMQRQLALEVIVTLSETAAAMLRKHTNIVAQTIPQMLAMMVDLEEDEDWANADELEDDDFDSNAVAGESALDRMACGLGGKLVLPMIKEHIMQMLQNPDWKYRHAGLMALSAIGEGCHQQMEGILNEIVNFVLLFLQDPHPRVRYAACNAVGQMATDFAPGFQKKFHEKVIAALLQTMEDQGNQRVQAHAAAALINFTEDCPKSLLIPYLDNLVKHLHSIMVLKLQELIQKGTKLVLEQVVTSIASVADTAEEKFVPYYDLFMPSLKHIVENAVQKELRLLRGKTIECISLIGLAVGKEKFMQDASDVMQLLLKTQTDFNDMEDDDPQISYMISAWARMCKILGKEFQQYLPVVMGPLMKTASIKPEVALLDTQDMENMSDDDGWEFVNLGDQQSFGIKTAGLEEKSTACQMLVCYAKELKEGFVEYTEQVVKLMVPLLKFYFHDGVRVAAAESMPLLLECARVRGPEYLTQMWHFMCDALIKAIGTEPDSDVLSEIMHSFAKCIEVMGDGCLNNEHFEELGGILKAKLEEHFKNQELRQVKRQDEDYDEQVEESLQDEDDNDVYILTKVSDILHSIFSSYKEKVLPWFEQLLPLIVNLICPHRPWPDRQWGLCIFDDVIEHCSPASFKYAEYFLRPMLQYVCDNSPEVRQAAAYGLGVMAQYGGDNYRPFCTEALPLLVRVIQSADSKTKENVNATENCISAVGKIMKFKPDCVNVEEVLPHWLSWLPLHEDKEEAVQTFNYLCDLIESNHPIVLGPNNTNLPKIFSIIAEGEMHEAIKHEDPCAKRLANVVRQVQTSGGLWTECIAQLSPEQQAAIQELLNSA
In the case of B1, the binding entry in test [1] and in test [2] was “binds” each time.
